Here are results for 40 compounds from the supplement of paper PMC5407854, “Inhibitor of ppGalNAc-T3-mediated O-glycosylation blocks cancer cell invasiveness and lowers FGF23 levels” (eLife, 2017).

The list shows a part of the results. Most entries show no effect beyond the scatter of the controls.

The test has as its system ppGalNAc-T3 sensor. The experiment in a line: T3 sensor activation Q score (MG/GFP ratio z-score vs DMSO controls) (SD units); higher = more sensor activation (inhibition of ppGalNAc-T3 glycosylation). The settings on record: HEK293 sensor cells; 10 µM; 6 h. Here is the method:
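Cells were treated with compound at 10 uM for 6 h, then MG/GFP ratio was read by flow cytometry (10,000 cells per well, duplicate wells). Q = (R - R_neg)/SD_neg relative to DMSO vehicle controls; the signal rises when the glycosyltransferase is inhibited.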
On to `O=c1c2ccccc2nc(/C=C\c2ccc(Cl)cc2)n1-c1ccccc1`, for which the “T3 sensor activation Q score” value was -0.115. As for `COc1ccc(Br)cc1CN1CCN(C)CC1`, the “T3 sensor activation Q score” value was 0.3. Take `COc1ccc(/C=C/C2=CCN(C)CC2)cc1`: the “T3 sensor activation Q score” value is 0.125. To `Fc1cccc(CN2CCN(c3ccccc3)CC2)c1` belongs -0.4. The same measure for `CCOc1ccccc1CN1CCN(c2ccccc2)CC1`: 0.15. The same measure for `O=[N+]([O-])c1ccc(NCCO)c2ncccc12`: 0.465.

As to `CCOc1ccccc1N1CCN(Cc2ccccc2)CC1`, the “T3 sensor activation Q score” value was -0.1. `CN1CCN(Cc2ccc(N(C)C)cc2)CC1`: the “T3 sensor activation Q score” value is 0.545. To `NCCc1c[nH]c2ccc(F)cc12` belongs -0.305; to `Cc1ccsc1CN1CCN(C)CC1`, 0.44. To `OCCN1CCN(Cc2ccccc2)CC1` belongs 1.32. To `CC(C)N1CCN(Cc2ccccc2Cl)CC1` belongs -0.09; to `COc1cccc(CN2CCN(c3ccc(Cl)cc3)CC2)c1OC`, 0.275. `COc1ccc(CN2CCN(c3cccc(C)c3C)CC2)cc1C`: the “T3 sensor activation Q score” value was -0.105. To `O=C1NC(=O)C(Cc2ccc(F)cc2)C(=O)N1` belongs -1.27; to `O=[N+]([O-])c1ccc(N2CCN(Cc3ccc(O)cc3)CC2)cc1`, -0.23; to `COc1ccccc1N1CCN(Cc2ccc(N(C)C)cc2)CC1`, -0.25. To `Cc1ccc(C)c(CN2CCN(c3ccccc3)CC2)c1` belongs -0.175; to `Cc1ccccc1CN1CCN(c2ccccc2F)CC1`, 0.545; to `Cc1cccc(N2CCN(Cc3ccc4c(c3)OCO4)CC2)c1C`, -0.4.

Turning to `COc1cccc(CN2CCN(C)CC2)c1OC`, the “T3 sensor activation Q score” value was 0.235. To `Cc1cccc(N2CCN(Cc3ccc(N(C)C)cc3)CC2)c1C` belongs -0.045. For `Cc1cccc(N2CCN(Cc3ccccc3)CC2)c1C`, the “T3 sensor activation Q score” value came out at 1.1. The same measure for `Cc1ccccc1N1CCN(Cc2ccc(N(C)C)cc2)CC1`: -0.245. Turning to `Fc1cccc(CN2CCN(Cc3ccc4c(c3)OCO4)CC2)c1`, the “T3 sensor activation Q score” value is -1.22. The same measure for `COc1ccc(N2CCN(Cc3cc(Br)ccc3OC)CC2)cc1`: 0.625.

As for `Fc1ccccc1CN1CCN(Cc2ccc3c(c2)OCO3)CC1`, the “T3 sensor activation Q score” value is -0.65.

Take `CN1CCN(Cc2ccccc2[N+](=O)[O-])CC1`: the “T3 sensor activation Q score” value came to 0.035. The same measure for `Cc1cccc(N2CCN(Cc3ccccc3[N+](=O)[O-])CC2)c1C`: 0.115; for `CCOc1ccc(/C=C/[N+](=O)[O-])cc1`: -1.23; for `CN1CCN(Cc2cccc(Br)c2)CC1`: 0.475. The same measure for `Fc1ccc(N2CCN(Cc3ccc(Cl)cc3)CC2)cc1`: -0.53. The same measure for `Fc1ccc(N2CCN(Cc3cccc(Br)c3)CC2)cc1`: 0.205; for `Fc1ccc(N2CCN(Cc3ccccc3)CC2)cc1`: -0.205. As to `CN1CCN(Cc2c(Cl)cccc2Cl)CC1`, the “T3 sensor activation Q score” value was determined as 1.26.

In the case of `Oc1c(Cl)cc(-c2cc(Cl)c(O)c(Cl)c2)cc1Cl`, the “T3 sensor activation Q score” value was -0.59. To `COc1ccc(OC)c(CN2CCN(C)CC2)c1` belongs 0.35; to `COc1ccc(CN2CCN(c3ccccc3C)CC2)cc1`, 0.425. The same measure for `CCOc1ccc(C(CN)CC(=O)O)cc1` (stereo not given): 0.845. The same measure for `COc1ccccc1N1CCN(Cc2ccc(Cl)cc2)CC1`: 0.32.
